According to the supplement of paper PMC10849652:
The list shows a part of the results. Residues, ends and D or L forms follow the SMILES beside them. *: point of attachment. Cbz = O=C(OCc1ccccc1)*

The chains behind the UniProt entries cited, without tags or fusion partners. Where a name states a change or a piece, a line headed by the entry shows the natural chain unless it says otherwise.
UniProt Q96NA2: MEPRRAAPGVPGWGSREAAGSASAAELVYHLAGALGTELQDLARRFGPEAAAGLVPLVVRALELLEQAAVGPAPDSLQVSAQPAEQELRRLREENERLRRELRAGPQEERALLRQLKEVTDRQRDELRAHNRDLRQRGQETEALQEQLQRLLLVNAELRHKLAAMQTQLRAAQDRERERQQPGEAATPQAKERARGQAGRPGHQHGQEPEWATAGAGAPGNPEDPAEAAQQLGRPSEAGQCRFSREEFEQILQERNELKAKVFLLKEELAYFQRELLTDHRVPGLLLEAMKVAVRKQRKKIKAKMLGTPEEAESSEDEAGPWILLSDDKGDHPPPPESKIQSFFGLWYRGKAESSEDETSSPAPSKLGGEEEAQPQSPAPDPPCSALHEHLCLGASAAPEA
UniProt Q96I51, whole entry, looked up: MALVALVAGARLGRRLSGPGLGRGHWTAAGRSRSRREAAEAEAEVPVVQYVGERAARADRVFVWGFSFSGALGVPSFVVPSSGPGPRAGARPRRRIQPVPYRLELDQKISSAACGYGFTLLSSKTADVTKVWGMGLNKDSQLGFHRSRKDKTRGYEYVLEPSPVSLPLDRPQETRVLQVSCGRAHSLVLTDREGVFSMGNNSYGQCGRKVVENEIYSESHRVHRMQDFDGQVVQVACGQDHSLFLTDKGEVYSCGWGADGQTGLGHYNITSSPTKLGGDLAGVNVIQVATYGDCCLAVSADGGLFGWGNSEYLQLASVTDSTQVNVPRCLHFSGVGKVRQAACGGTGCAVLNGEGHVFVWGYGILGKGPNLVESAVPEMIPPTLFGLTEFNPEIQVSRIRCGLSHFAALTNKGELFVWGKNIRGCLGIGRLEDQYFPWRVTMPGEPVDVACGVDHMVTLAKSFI
UniProt Q9H871: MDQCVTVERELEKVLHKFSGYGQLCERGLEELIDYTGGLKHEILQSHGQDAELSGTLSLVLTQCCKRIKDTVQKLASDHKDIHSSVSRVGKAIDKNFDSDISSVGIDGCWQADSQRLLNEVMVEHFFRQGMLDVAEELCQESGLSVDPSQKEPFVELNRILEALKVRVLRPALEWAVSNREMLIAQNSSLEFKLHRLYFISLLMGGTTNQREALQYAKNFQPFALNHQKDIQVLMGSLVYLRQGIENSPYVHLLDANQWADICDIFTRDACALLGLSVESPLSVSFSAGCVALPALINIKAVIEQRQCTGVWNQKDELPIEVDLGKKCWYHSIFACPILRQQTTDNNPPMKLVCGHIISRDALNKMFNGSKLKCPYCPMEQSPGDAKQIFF
UniProt Q8IXI2: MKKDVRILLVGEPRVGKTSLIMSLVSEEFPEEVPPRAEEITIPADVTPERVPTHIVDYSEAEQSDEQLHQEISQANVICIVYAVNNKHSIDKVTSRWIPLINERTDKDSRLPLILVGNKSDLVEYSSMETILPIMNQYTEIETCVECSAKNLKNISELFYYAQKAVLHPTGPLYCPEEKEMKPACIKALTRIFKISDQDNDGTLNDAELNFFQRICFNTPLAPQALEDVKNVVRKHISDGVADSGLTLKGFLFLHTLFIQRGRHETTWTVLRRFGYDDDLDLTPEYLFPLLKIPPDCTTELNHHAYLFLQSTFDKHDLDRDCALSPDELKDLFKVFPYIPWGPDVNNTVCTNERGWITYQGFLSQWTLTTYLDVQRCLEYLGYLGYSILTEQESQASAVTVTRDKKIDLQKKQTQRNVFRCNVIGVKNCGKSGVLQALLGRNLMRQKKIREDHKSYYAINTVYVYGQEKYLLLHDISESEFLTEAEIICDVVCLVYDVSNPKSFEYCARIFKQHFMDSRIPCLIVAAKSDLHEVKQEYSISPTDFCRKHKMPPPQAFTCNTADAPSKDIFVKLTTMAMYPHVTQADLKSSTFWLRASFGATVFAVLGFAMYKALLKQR
UniProt P34096: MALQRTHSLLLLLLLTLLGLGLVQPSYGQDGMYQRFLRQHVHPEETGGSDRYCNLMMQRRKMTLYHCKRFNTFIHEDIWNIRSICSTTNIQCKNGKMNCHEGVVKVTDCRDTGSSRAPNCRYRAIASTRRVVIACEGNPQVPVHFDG
UniProt Q8TDP1: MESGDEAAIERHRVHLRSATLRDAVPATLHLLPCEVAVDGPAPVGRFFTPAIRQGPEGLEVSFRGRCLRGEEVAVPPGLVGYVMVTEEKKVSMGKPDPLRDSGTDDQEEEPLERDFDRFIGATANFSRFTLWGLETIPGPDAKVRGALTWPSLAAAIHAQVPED
UniProt A6NED2: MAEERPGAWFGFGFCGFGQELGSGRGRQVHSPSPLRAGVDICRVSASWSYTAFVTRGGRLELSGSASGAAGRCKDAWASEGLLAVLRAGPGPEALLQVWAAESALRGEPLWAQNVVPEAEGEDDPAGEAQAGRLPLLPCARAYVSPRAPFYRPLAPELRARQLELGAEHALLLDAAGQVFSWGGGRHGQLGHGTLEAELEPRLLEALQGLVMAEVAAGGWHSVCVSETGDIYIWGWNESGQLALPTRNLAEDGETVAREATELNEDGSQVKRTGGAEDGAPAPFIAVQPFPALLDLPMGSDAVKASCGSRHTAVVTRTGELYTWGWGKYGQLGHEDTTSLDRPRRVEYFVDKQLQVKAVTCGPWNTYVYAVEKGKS
UniProt Q9NWS8: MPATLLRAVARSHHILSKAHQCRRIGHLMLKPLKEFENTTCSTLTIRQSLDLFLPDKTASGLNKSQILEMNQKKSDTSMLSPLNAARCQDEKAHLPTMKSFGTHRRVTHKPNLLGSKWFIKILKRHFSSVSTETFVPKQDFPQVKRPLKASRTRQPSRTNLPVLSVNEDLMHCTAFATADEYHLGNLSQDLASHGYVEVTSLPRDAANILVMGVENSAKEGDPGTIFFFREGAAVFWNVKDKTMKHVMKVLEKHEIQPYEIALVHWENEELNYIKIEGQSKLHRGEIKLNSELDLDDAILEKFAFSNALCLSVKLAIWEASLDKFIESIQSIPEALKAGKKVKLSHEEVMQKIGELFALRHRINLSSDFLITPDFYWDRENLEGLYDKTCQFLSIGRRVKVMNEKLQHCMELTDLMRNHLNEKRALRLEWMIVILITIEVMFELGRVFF
UniProt Q8ND24: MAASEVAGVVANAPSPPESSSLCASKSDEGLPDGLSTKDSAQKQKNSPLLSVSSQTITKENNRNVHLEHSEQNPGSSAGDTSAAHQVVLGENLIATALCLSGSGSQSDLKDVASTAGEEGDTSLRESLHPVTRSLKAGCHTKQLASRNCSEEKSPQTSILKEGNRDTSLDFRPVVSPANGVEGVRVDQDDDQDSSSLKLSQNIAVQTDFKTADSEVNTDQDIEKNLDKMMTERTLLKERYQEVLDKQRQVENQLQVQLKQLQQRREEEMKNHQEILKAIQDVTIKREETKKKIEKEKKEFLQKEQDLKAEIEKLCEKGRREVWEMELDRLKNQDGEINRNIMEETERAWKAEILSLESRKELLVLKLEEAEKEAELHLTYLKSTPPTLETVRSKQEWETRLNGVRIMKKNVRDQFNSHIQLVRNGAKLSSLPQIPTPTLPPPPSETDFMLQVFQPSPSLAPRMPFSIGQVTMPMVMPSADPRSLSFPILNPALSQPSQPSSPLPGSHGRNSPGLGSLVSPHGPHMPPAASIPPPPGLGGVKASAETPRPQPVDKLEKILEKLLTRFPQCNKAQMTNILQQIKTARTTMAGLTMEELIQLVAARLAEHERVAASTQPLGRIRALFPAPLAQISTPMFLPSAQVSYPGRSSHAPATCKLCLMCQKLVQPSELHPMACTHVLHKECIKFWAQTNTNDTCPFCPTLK
UniProt P52758: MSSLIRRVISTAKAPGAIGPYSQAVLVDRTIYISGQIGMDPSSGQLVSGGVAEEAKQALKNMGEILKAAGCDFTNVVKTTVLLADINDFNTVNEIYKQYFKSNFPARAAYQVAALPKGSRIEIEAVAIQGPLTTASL
UniProt P38159: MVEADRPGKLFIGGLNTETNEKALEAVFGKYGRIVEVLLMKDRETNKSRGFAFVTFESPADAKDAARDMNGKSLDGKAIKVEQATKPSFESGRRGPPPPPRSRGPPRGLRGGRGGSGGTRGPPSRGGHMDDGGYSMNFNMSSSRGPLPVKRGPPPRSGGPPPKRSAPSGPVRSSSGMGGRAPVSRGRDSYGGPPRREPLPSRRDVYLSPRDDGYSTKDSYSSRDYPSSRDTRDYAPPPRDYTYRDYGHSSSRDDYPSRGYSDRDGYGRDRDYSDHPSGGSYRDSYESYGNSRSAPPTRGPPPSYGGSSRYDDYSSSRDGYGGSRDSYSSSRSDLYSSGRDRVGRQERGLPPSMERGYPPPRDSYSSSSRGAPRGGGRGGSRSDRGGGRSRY
UniProt Q8IUF8: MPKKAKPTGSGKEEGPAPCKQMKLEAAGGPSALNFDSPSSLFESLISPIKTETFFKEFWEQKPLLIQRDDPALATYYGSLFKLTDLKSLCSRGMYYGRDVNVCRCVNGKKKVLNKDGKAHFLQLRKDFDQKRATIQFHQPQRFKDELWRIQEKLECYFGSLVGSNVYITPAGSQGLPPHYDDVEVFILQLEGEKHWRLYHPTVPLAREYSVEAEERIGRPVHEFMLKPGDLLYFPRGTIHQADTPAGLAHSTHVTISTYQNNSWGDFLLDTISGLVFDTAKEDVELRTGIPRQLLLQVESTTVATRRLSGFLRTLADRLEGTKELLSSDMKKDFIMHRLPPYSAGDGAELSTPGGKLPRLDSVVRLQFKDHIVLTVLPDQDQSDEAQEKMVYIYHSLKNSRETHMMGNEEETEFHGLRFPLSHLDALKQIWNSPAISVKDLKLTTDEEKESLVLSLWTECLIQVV
UniProt Q9HBH5: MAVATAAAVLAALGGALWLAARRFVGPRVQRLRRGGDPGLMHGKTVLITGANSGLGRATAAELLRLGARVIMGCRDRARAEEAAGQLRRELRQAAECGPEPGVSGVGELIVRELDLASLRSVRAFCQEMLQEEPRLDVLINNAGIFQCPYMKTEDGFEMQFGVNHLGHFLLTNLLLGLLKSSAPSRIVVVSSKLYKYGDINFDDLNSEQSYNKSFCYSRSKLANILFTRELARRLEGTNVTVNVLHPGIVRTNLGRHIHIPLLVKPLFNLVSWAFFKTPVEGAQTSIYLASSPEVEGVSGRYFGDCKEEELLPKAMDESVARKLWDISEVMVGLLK
UniProt P35241, whole entry, looked up: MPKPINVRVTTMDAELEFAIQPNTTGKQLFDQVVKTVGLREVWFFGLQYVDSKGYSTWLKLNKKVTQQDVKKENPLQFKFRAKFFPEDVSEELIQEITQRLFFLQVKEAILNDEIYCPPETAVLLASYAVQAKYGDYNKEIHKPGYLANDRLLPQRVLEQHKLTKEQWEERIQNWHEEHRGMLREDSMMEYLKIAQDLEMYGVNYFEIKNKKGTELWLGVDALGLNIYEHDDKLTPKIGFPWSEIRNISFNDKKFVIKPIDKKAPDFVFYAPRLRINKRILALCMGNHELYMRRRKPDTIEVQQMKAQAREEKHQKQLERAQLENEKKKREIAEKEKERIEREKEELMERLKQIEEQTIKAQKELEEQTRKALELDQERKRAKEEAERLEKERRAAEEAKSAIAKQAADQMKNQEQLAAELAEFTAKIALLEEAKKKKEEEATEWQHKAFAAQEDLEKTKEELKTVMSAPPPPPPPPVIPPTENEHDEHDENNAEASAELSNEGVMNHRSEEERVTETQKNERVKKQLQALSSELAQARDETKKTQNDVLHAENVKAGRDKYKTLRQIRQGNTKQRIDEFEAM
UniProt Q969G6: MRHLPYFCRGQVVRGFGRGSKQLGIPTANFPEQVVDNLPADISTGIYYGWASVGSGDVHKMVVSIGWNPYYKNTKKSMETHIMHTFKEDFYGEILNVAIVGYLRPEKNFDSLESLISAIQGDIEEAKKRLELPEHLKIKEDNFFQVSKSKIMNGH

What was measured:
Assay in all cases: log2 fold change, soluble protein after heating vs DMSO (PISA); higher = thermal stabilisation; K562 cells, 10 uM, 30 min; active = over 0.2 and 3.5 SD of the protein, either way, in both replicates (recomputed)
[1] = compound: C1COCCN1CCN2C3=CC=CC=C3N=C2NC(=O)C4=CC(=CC=C4)[N+](=O)[O-] [IRAK-1-4 Inhibitor I]
Method in brief: (§1)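 Values are thermal stability changes relative to control samples and are taken from duplicates. They are stated as log2 fold changes. Before quantification by TMTpro 16plex LC-MS/MS with equalised channel sums, K562 cells at 2×10^6 cells/mL were treated with 10 μM compound for 30 min, heated in aliquots for 3 min across 48°C-58°C, pooled, extracted in PBS with 0.5% NP-40 at 4°C, and centrifuged at 21,000xg for 90 min to give the soluble supernatant.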

[2] = compound: C=CC(=O)N1CCC[C@@H](n2nc(-c3ccc(Oc4ccccc4)cc3)c3c(N)ncnc32)C1 [ibrutinib]
Method in brief: as §1

[3] = compound: CC(=O)c1cnc2ccc(-c3cc(Cl)c(O)c(Cl)c3)nc2c1N[C@H]1CC[C@H](CN(C)C)CC1
Method in brief: as §1

[4] = compound: CC(C)(C)Cn1c(N)nc2ccc(-c3[nH]c(C(C)(C)C)nc3-c3ccc(F)cc3)nc21 [ralimetinib]
Method in brief: as §1

[5] = compound: CC(C)(O)CC(=O)NCCn1ccc2ncnc(Nc3ccc(Oc4cccc(C(F)(F)F)c4)c(Cl)c3)c21
Method in brief: as §1

[6] = compound: CC(C)C1=C2N=C(C=C(N2N=C1)NCC3=CC=CC=C3)NCCCCCCN
Method in brief: as §1

[7] = compound: CC(C)C[C@@H](C=O)NC(=O)[C@H](CC(C)C)NC(=O)[C@H](CC(C)C)NC(=O)OCc1ccccc1
Method in brief: as §1

[8] = compound: CC(C)N(C[C@H]1O[C@@H](n2cnc3c(N)ncnc32)[C@H](O)[C@@H]1O)[C@H]1C[C@@H](CCc2nc3cc(C(C)(C)C)ccc3[nH]2)C1 [pinometostat]
Method in brief: as §1

[9] = compound: CC1=C(C(CC(=O)N1)C2=CC=C(C=C2)C(F)(F)F)C(=O)NC3=C(C=C4C(=C3)C=NN4)F
Method in brief: as §1

[10] = compound: CC1=C(C2=C(C=C1)C(=O)C3=CC=CC=C3N2CCCN)C
Method in brief: as §1

[11] = compound: CC1=C(C=C(C=C1)NC(=O)C2=CC(=CC=C2)C(C)(C)C#N)NC3=CC4=C(C=C3)N=CN(C4=O)C
Method in brief: as §1

[12] = compound: CC1=C(C=C(C=C1)NC(=O)C2=CC(=CC=C2)N(C)C)NC(=O)C3=CC=C(C=C3)O
Method in brief: as §1

[13] = compound: CC1=CC=C(C=C1)SC2=C3C=C(SC3=CN=C2)C(=O)N
Method in brief: as §1

[14] = compound: CC1=NC(=CC=C1)C2=C(N=C(N2)C(C)(C)C)C3=CC4=NC=CN=C4C=C3
Method in brief: as §1

[15] = compound: CCCCN(Cc1ccc(C(=O)NO)cc1)C(=O)Nc1ccccc1 [Nexturastat A]
Method in brief: as §1

[16] = compound: CCCS(=O)(=O)Nc1ccc(F)c(C(=O)c2c[nH]c3ncc(-c4ccc(Cl)cc4)cc23)c1F [vemurafenib]
Method in brief: as §1

[17] = compound: CCCS(=O)(=O)Nc1ccc(F)c(C(=O)c2c[nH]c3ncc(Cl)cc23)c1F
Method in brief: as §1

[18] = compound: CCCc1cc(C)[nH]c(=O)c1CNC(=O)c1cc(-c2ccnc(N3CCN(C)CC3)c2)cc2c1cnn2C(C)C
Method in brief: as §1

[19] = compound: CCN(CC)Cc1ccc2cc(COC(=O)Nc3ccc(C(=O)NO)cc3)ccc2c1 [givinostat]
Method in brief: as §1

[20] = compound: CCN(CCCOc1ccc2c(Nc3cc(CC(=O)Nc4cccc(F)c4)[nH]n3)ncnc2c1)CCOP(=O)(O)O [barasertib]
Method in brief: as §1

Measured: log2 fold change

RILP (UniProt Q96NA2)
inactive: [1] 0.012 | [2] -0.004 | [3] -0.126 | [4] 0.013 | [5] 0.015 | [6] -0.041 | [7] -0.003 | [8] 0.003 | [9] 0.007 | [10] 0.032 | [11] 0.001 | [12] -0.005 | [13] 0.121 | [14] -0.018 | [15] 0.002 | [16] 0.147 | [17] 0.085 | [18] 0.029 | [19] -0.005 | [20] 0.065

RCC1L (UniProt Q96I51)
inactive: [1] -0.008 | [2] 0.016 | [3] -0.006 | [4] 0.049 | [5] 0.006 | [6] 0.039 | [7] -0.039 | [8] -0.069 | [9] -0.002 | [10] 0.042 | [11] -0.033 | [12] -0.036 | [13] 0.025 | [14] 0.015 | [15] -0.04 | [16] -0.003 | [17] -0.007 | [18] -0.03 | [19] 0.001 | [20] 0.007

RMND5A (UniProt Q9H871)
inactive: [1] -0.007 | [2] 0.004 | [3] -0.047 | [4] 0.027 | [5] -0.002 | [6] 0.006 | [7] -0.024 | [8] -0.013 | [9] 0.028 | [10] -0.077 | [11] 0.024 | [12] 0.029 | [13] -0.06 | [14] 0.005 | [15] 0.045 | [16] -0.008 | [17] 0.031 | [18] -0.041 | [19] -0.009 | [20] 0.043

RHOT1 isoform 3 (UniProt Q8IXI2)
inactive: [1] 0.018 | [2] -0.017 | [3] -0.021 | [4] -0.025 | [5] -0.02 | [6] -0.194 | [7] -0.03 | [8] -0.017 | [9] 0.029 | [10] 0.022 | [11] 0.035 | [12] 0 | [13] -0.012 | [14] 0.031 | [15] 0.029 | [16] 0 | [17] 0.025 | [18] -0.013 | [19] 0.021 | [20] 0.033

RNASE4 (UniProt P34096)
inactive: [1] -0.064 | [2] 0.158 | [3] 0.037 | [4] 0.034 | [5] -0.085 | [6] 0.014 | [7] 0.13 | [8] -0.014 | [9] 0.162 | [10] -0.01 | [11] 0.082 | [12] -0.01 | [13] 0.052 | [14] 0.073 | [15] 0.222 | [16] 0.026 | [17] 0.051 | [18] -0.466 | [19] -0.172 | [20] 0.025

RNASEH2C (UniProt Q8TDP1)
inactive: [1] 0.009 | [2] 0.06 | [3] -0.092 | [4] 0.013 | [5] -0.147 | [6] -0.244 | [7] 0.005 | [8] -0.062 | [9] -0.041 | [10] 0.134 | [11] -0.013 | [12] -0.087 | [13] -0.01 | [14] 0.016 | [15] -0.003 | [16] 0.077 | [17] 0.08 | [18] 0.073 | [19] 0.003 | [20] 0.089

RCCD1 (UniProt A6NED2)
inactive: [1] -0.038 | [2] 0.026 | [3] 0.047 | [4] -0.015 | [5] -0.037 | [6] 0.031 | [7] 0.007 | [8] 0.01 | [9] -0.021 | [10] 0.016 | [11] 0 | [12] -0.013 | [13] 0.028 | [14] 0.015 | [15] -0.008 | [16] 0.018 | [17] -0.033 | [18] 0.226 | [19] -0.02 | [20] 0.045

RMND1 (UniProt Q9NWS8)
inactive: [1] 0.033 | [2] 0.019 | [3] 0.035 | [4] -0.016 | [5] -0.059 | [6] -0.01 | [7] 0.016 | [8] -0.026 | [9] -0.054 | [10] 0.027 | [11] -0.002 | [12] 0.026 | [13] -0.025 | [14] 0.024 | [15] -0.014 | [16] -0.039 | [17] 0.034 | [18] 0.103 | [19] -0.023 | [20] 0.051

RNF214 (UniProt Q8ND24)
inactive: [1] -0.037 | [2] 0.086 | [3] -0.071 | [4] 0.01 | [5] -0.068 | [6] -0.001 | [7] 0.089 | [8] 0.084 | [9] 0.002 | [10] 0.086 | [11] -0.083 | [12] -0.015 | [13] 0.007 | [14] -0.026 | [15] 0.125 | [16] 0.073 | [17] 0.036 | [18] 0.049 | [19] 0.047 | [20] -0.018

RIDA (UniProt P52758)
inactive: [1] 0.062 | [2] 0.034 | [3] 0.046 | [4] -0.008 | [5] -0.006 | [6] 0.062 | [7] -0.044 | [8] -0.024 | [9] 0.052 | [10] 0.046 | [11] -0.037 | [12] -0.012 | [13] 0.004 | [14] 0.032 | [15] 0.024 | [16] 0.094 | [17] -0.025 | [18] -0.065 | [19] -0.004 | [20] 0.009

RBMX (UniProt P38159)
inactive: [1] -0.218 | [2] 0.017 | [3] -0.021 | [4] 0.139 | [5] 0.064 | [6] 0.1 | [7] 0.211 | [8] 0.16 | [9] -0.028 | [10] -0.16 | [11] 0.015 | [12] 0.009 | [13] -0.009 | [14] -0.019 | [15] 0.349 | [16] 0.011 | [17] -0.006 | [18] 0.187 | [19] 0.161 | [20] -0.112

RIOX2 (UniProt Q8IUF8)
inactive: [1] -0.009 | [2] -0.004 | [3] 0.049 | [4] -0.035 | [5] -0.044 | [6] 0.023 | [7] -0.029 | [8] 0.009 | [9] -0.105 | [10] -0.045 | [11] -0.009 | [12] 0.036 | [13] 0.043 | [14] 0.152 | [15] 0.102 | [16] -0.044 | [17] -0.037 | [18] -0.054 | [19] -0.045 | [20] -0.012

Reprinted at random: two entries already listed
RMND1 (UniProt Q9NWS8)
inactive: [1] 0.033 | [2] 0.019 | [3] 0.035 | [4] -0.016 | [5] -0.059 | [6] -0.01 | [7] 0.016 | [8] -0.026 | [9] -0.054 | [10] 0.027 | [11] -0.002 | [12] 0.026 | [13] -0.025 | [14] 0.024 | [15] -0.014 | [16] -0.039 | [17] 0.034 | [18] 0.103 | [19] -0.023 | [20] 0.051

RIDA (UniProt P52758)
inactive: [1] 0.062 | [2] 0.034 | [3] 0.046 | [4] -0.008 | [5] -0.006 | [6] 0.062 | [7] -0.044 | [8] -0.024 | [9] 0.052 | [10] 0.046 | [11] -0.037 | [12] -0.012 | [13] 0.004 | [14] 0.032 | [15] 0.024 | [16] 0.094 | [17] -0.025 | [18] -0.065 | [19] -0.004 | [20] 0.009

Later entries.

RDH14 (UniProt Q9HBH5)
inactive: [1] 0.015 | [2] -0.01 | [3] -0.039 | [4] 0.069 | [5] 0.267 | [6] -0.055 | [7] -0.04 | [8] -0.054 | [9] -0.077 | [10] 0.073 | [11] 0.066 | [12] -0.049 | [13] -0.021 | [14] 0.006 | [15] 0.043 | [16] 0.023 | [17] 0.003 | [18] 0.006 | [19] -0.039 | [20] -0.047

RDX (UniProt P35241)
inactive: [1] 0.001 | [2] -0.018 | [3] 0.024 | [4] 0.023 | [5] -0.076 | [6] 0.078 | [7] -0.035 | [8] -0.029 | [9] -0.008 | [10] 0.039 | [11] 0.002 | [12] -0.002 | [13] 0.03 | [14] 0.052 | [15] -0.091 | [16] -0.017 | [17] 0.011 | [18] 0.02 | [19] -0.025 | [20] -0.001

RNF213 isoform 4 (UniProt Q63HN8)
inactive: [1] -0.128 | [2] 0.041 | [3] -0.123 | [4] -0.072 | [5] -0.076 | [6] -0.025 | [7] 0.17 | [8] 0.178 | [9] 0.176 | [10] 0.049 | [11] 0.205 | [12] 0.042 | [13] -0.061 | [14] -0.066 | [15] 0.142 | [16] 0.102 | [17] 0.039 | [18] -0.359 | [19] 0.118 | [20] 0.063

RFK (UniProt Q969G6)
inactive: [1] 0.02 | [2] -0.012 | [3] 0.112 | [4] -0.045 | [5] 0.031 | [6] 0.078 | [7] -0.06 | [8] -0.064 | [9] -0.006 | [10] 0.039 | [11] -0.013 | [12] -0.042 | [13] 0.031 | [14] 0.096 | [15] -0.093 | [16] 0.057 | [17] 0.039 | [18] -0.076 | [19] -0.036 | [20] -0.021
